Assay results from PubChem BioAssay AID2517 (National Center for Advancing Translational Sciences (NCATS), 2010).
The campaign covered roughly 350,000 compounds. About 1,200 (0.34%) were called active. Inconclusive means that the source gave no clear call. Such entries were picked first, then a sample of the others. Calls follow the shape of the dose curve; as a rule, active = well fitted inhibition curve with a large enough effect; inconclusive = small, poorly fitted or top-dose-only effect; inactive = no such curve, though single readings can be large or run the other way. Potencies beside an inconclusive call are fits to weak or partial responses and may not hold up.
Also: nearly all actives have a fitted effect of over 55% in size.
Potency is read from the fitted curve at half-maximal effect.

The chains behind the UniProt entries cited, without tags or fusion partners.
UniProt P27695, whole entry, looked up: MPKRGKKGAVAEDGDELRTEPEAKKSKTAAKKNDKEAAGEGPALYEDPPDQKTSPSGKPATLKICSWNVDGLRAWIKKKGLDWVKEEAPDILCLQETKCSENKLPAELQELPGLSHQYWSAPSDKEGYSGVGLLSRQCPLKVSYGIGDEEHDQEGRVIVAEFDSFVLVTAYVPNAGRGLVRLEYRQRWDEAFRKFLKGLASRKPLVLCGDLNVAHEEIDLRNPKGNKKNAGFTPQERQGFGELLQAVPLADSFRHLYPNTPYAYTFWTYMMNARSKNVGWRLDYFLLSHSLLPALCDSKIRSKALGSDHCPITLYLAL

The compounds below were run against DNA repair nuclease/redox regulator APEX1 (Homo sapiens) (UniProt P27695) (assay: qHTS Assay for Inhibitors of the Human Apurinic/apyrimidinic Endonuclease 1 (APE1)). Conditions: recombinant APE1, TAMRA/BHQ-2 abasic DNA cleavage fluorescence; series mostly up to 65.8 µM.
Summary of the method: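 Incision of a quenched TAMRA/BHQ-2 THF abasic-site duplex (50 nM) by 0.75 nM APE1, after 15 min compound preincubation, measured as fluorescence increase over three 60 s reads. Values normalized to buffer, DMSO and NSC13755 control wells.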
With COc1ccc(NC(=O)Nc2cccc([N+](=O)[O-])c2)cc1Cl the Potency was inconclusive: 22.4 µM [inhibitor, single point].
In the case of CN(C)S(=O)(=O)N1CCC(Oc2cccc(C(=O)N3CCCCCCC3)c2)CC1, the Potency was “inactive”.
CC(=O)Nc1ccc(S(=O)(=O)NCCC(=O)Nc2ccc(C)c(Cl)c2)cc1 was tested, and the Potency was inconclusive: 44.7 µM [inhibitor, single point].
With CC1CC2=C(C(=O)O1)C(c1ccccc1)Nc1ccccc1N2 (stereo not given) the Potency was inconclusive: 0.0251 µM [inhibitor, partial curve, poor fit].
C/C=C(\C)C(=O)N1CC2(CC(c3cccc(NC(=O)COc4ccc(Cl)cc4)c3)=NO2)C[C@@H]1C(N)=O (stereo not given in full) was tested, and the Potency was “inactive”.
With COc1ccc(Br)cc1C1Nc2cccc3cccc(c23)N1 the Potency was “inactive”.
In the case of NCCCCCCNc1nc2c(N)ncnc2n1[C@@H]1O[C@@H]2COP(=O)(O)O[C@H]2[C@H]1O, the Potency was inconclusive: 22.4 µM [inhibitor, partial curve].
COc1ccc(C(=O)NNC(=O)CSc2nnc(COc3ccc4ccccc4c3)n2C)cc1 was tested, and the Potency was “inactive”.
With NC(=O)NN=C1C2CCCC1C(c1ccccc1)NC2c1ccccc1 (stereo not given) the Potency was inconclusive: 3.55 µM [inhibitor, single point].
In the case of COc1cc(O)c(C(CCN2CCOCC2)c2cc(OC)c(OC)c(OC)c2)c(OC)c1 (stereo not given), the Potency was inconclusive: 2.51 µM [inhibitor, partial curve, poor fit].
For Fc1ccc(Nc2nc(-c3ccncc3)cs2)cc1, the Potency was “inactive”.
In the case of COc1cc(/C=N/n2cnnc2)ccc1Oc1nc(Cl)ncc1F, the Potency was inconclusive: 15.8 µM [inhibitor, single point].
For O=C(CSc1nnc(-c2ccccc2)n1Cc1ccccc1)N1CCOCC1, the Potency was “inactive”.
CCn1c(SCC(=O)Nc2sc3c(c2C(N)=O)CCC(C)C3)nnc1-c1ccco1 (stereo not given) was tested, and the Potency was inconclusive: 50.1 µM [inhibitor, single point].
For Cc1noc(C)c1-c1ccc2ncnc(NCc3ccco3)c2c1, the Potency was “inactive”.
CSc1nnc2c3ccccc3c3ccccc3c2n1 was tested, and the Potency was inconclusive: 0.141 µM [inhibitor, full curve, poor fit].
In the case of COc1c(O)c(O)cc2c1oc1c3ccccc3oc(=O)c21, the Potency was active: 28.2 µM.
Cc1ccc(S(=O)(=O)NN2C(=O)c3ccccc3NC2c2ccccn2)cc1 (stereo not given) was tested, and the Potency was inconclusive: 8.91 µM [inhibitor, single point].
In the case of NS(=O)(=O)c1ccc(-c2ccc(/C=N/Nc3ccc(C(=O)O)cc3)o2)cc1, the Potency was inconclusive: 31.6 µM [inhibitor, single point].
For CC(=O)c1ccc(NC(=O)c2cnn3ccccc23)cc1, the Potency was “inactive”.
With COC(=O)NC(/C(C(=O)OC)=C(\C)NCc1ccccc1)c1cccc(F)c1 (stereo not given) the Potency was inconclusive: 7.08 µM [inhibitor, single point].
With COC(=O)CCC(=O)OC1(C)C(=O)C2=CN(CCCOC(C)C)C(c3ccc(OC)cc3)=CC2=C(Br)C1=O (stereo not given) the Potency was “inactive”.
For Cc1c(O)c(CN2CCCC2)cc2c3c(c(=O)oc12)CCC3, the Potency was inconclusive: 22.4 µM [inhibitor, partial curve].
For Cc1ccc(N2NC(=O)/C(=C/c3ccc(-c4ccc(Cl)c(C(=O)O)c4)o3)C2=O)cc1, the Potency was “inactive”.
In the case of O=C(NCCOc1ccc(F)cc1)c1ccccc1SCc1ccccc1, the Potency was inconclusive: 35.5 µM [inhibitor, single point].
For COc1ccccc1NC(=O)CN(C)S(=O)(=O)c1cc(C)ccc1OC, the Potency was inconclusive: 0.0708 µM [inhibitor, full curve, poor fit].
With CO/N=C/c1ccc(N2CCN(C(=O)c3ccc(Cl)cc3Cl)CC2)c([N+](=O)[O-])c1 the Potency was inconclusive: 44.7 µM [inhibitor, single point].
For CCOc1ccccc1NC(=O)c1ccc(S(=O)(=O)N(C)C)cc1, the Potency was inconclusive: 3.16 µM [inhibitor, single point].
CCOc1ccc2[nH]c(C)c(CN3CCOCC3)c(=O)c2c1 was tested, and the Potency was inconclusive: 44.7 µM [inhibitor, partial curve, poor fit].
In the case of Cc1ccsc1C1Nc2ccccc2C(=O)N1O (stereo not given), the Potency was inconclusive: 39.8 µM [inhibitor, single point].
With S=c1[nH]nc(-c2cc(-c3ccccc3)n[nH]2)n1/N=C/C=C/c1ccco1 the Potency was inconclusive: 39.8 µM [inhibitor, single point].
In the case of Cc1cc(C)cc(C#CC2C=CC(Oc3ccc(C4CCCC4)cc3)C(CO)O2)c1 (stereo not given), the Potency was inconclusive: 4.47 µM [inhibitor, single point].
In the case of O=C(OCc1nnc(-c2ccccc2)o1)c1ccc(S(=O)(=O)NCc2ccco2)cc1, the Potency was inconclusive: 35.5 µM [inhibitor, single point].
In the case of CNS(=O)(=O)c1ccc2nc(NC(=O)/C=C/c3ccco3)sc2c1, the Potency was inconclusive: 39.8 µM [inhibitor, single point].
CCCCCCCCCCCCCCCC(=O)C1=C(O)C(CO)OC1=O (stereo not given) was tested, and the Potency was inconclusive: 35.5 µM [inhibitor, partial curve].
CC(C)(C)C(=O)Nc1nnc(CC(=O)NCc2ccccc2)s1 was tested, and the Potency was inconclusive: 0.0316 µM [inhibitor, full curve, poor fit].
With C#CCOCCOCCOCCNc1nc(N2CCN(C(=O)[C@H](C(C)C)n3cc(CCO)nn3)CC2)nc(N2CCN(C(=O)[C@H]([C@@H](C)CC)n3cc(CCCN=C(N)N)nn3)CC2)n1 the Potency was inconclusive: 3.16 µM [inhibitor, single point].
With COc1ccc2cc(-c3[nH]ncc3CN3CCCN(c4ccccc4)CC3)ccc2c1 the Potency was “inactive”.
CN(C1=C(N2CCOCC2)C(=O)c2ccccc2C1=O)c1ccccc1 was tested, and the Potency was “inactive”.
In the case of O=C(COC(=O)C1CC(O)CN1S(=O)(=O)c1ccc(Cl)cc1)c1cccc(Cl)c1 (stereo not given), the Potency was inconclusive: 39.8 µM [inhibitor, single point].
Cc1ccc(/C=C2/SC(=S)N(CCCC(=O)Nc3ccc(O)cc3)C2=O)cc1 was tested, and the Potency was inconclusive: 44.7 µM [inhibitor, single point].
CCC1(C(=O)O)NC(c2cc(OC)ccc2O)C2C(=O)N(Cc3ccccc3)C(=O)C21 (stereo not given) was tested, and the Potency was inconclusive: 44.7 µM [inhibitor, single point].
In the case of CN1CCc2ccc3c4c2[C@]1(C)Cc1cccc(c1-4)OCO3, the Potency was inconclusive: 28.2 µM [inhibitor, partial curve].
With CC(O)CC(C(=O)NNc1ccccc1)C(=O)NNc1ccccc1 (stereo not given) the Potency was inconclusive: 44.7 µM [inhibitor, single point].
With COCC(=O)Nc1ccc(OC)c(Cl)c1 the Potency was inconclusive: 44.7 µM [inhibitor, single point].
Cc1cc(NC(=O)C2CC(c3cccc(Br)c3)=NO2)no1 (stereo not given) was tested, and the Potency was “inactive”.
With CCOc1ccc(S(=O)(=O)N(C)c2ccc(OCC(=O)NCc3ccc(C(=O)OC)cc3)cc2)cc1 the Potency was inconclusive: 31.6 µM [inhibitor, single point].
With CCN1C(=O)C(C)S/C1=N\S(=O)(=O)c1ccc(F)cc1 (stereo not given) the Potency was inconclusive: 44.7 µM [inhibitor, single point].
O=C(Nc1ccc(S(=O)(=O)Nc2nccs2)cc1)c1cccc(N2C(=O)c3ccccc3C2=O)c1 was tested, and the Potency was “inactive”.
For Cc1ccc(S(=O)(=O)c2cc3c(=O)n4ccccc4nc3n(Cc3ccco3)c2=N)cc1, the Potency was inconclusive: 35.5 µM [inhibitor, single point].
In the case of CCN(CC)CCCNC(=O)c1cc2c(-c3ccc(Cl)cc3)nn(C)c2s1, the Potency was inconclusive: 0.794 µM [inhibitor, full curve].
O=C(COc1cccc([N+](=O)[O-])c1)N/N=C/c1ccco1 was tested, and the Potency was inconclusive: 25.1 µM [inhibitor, single point].
In the case of Oc1ccc(/C=N/Nc2ncnc3nc[nH]c23)cc1, the Potency was inconclusive: 15.8 µM [inhibitor, partial curve].
In the case of C=C(C)C(=O)Nc1cccc(C2=NOC3(C2)C[C@H](C(N)=O)N(C(=O)COc2ccc(Cl)cc2)C3)c1 (stereo not given in full), the Potency was inconclusive: 31.6 µM [inhibitor, partial curve].
In the case of CC(O)c1nc2c(c(=O)n(C)c(=O)n2C)n1C (stereo not given), the Potency was inconclusive: 56.2 µM [inhibitor, partial curve, poor fit].
For COCCn1c(=O)c(-c2ccc(Cl)cc2)nc2cnc(Oc3ccccc3)nc21, the Potency was inconclusive: 0.178 µM [inhibitor, single point].
O=C(OCC(=O)c1ccc[nH]1)c1ccc([N+](=O)[O-])cc1 was tested, and the Potency was “inactive”.
In the case of COc1ccc(C(=O)N2CCC(N3CCN(c4ccccc4)CC3)CC2)cc1, the Potency was inconclusive: 22.4 µM [inhibitor, single point].
For CC(C)(C)CC(=O)Nc1cc2c3c(c1)CCN3C(=O)CC2, the Potency was “inactive”.
In the case of COc1cccc(Cn2c(=O)c(-c3ccc(F)cc3)nc3cnc(N4CCOCC4)nc32)c1, the Potency was inconclusive: 28.2 µM [inhibitor, single point].
In the case of N#CC1=C(N)n2c(s/c(=C\c3cccs3)c2=O)=C(C#N)C1c1cccs1 (stereo not given), the Potency was “inactive”.
For CCCSc1ccc(-c2nn(-c3ccccc3)cc2/C=C(/C#N)C(=O)N2CCOCC2)cc1, the Potency was inconclusive: 0.0316 µM [inhibitor, full curve].
In the case of O=C1c2cc(Cl)ccc2OC2(CCNCC2)C12CC(c1ccc(Cl)cc1)=NO2 (stereo not given), the Potency was inconclusive: 20 µM [inhibitor, partial curve].
With COc1ccc(NC(=O)CN(C)C(=O)C(Sc2ccccc2)c2ccccc2)cc1 (stereo not given) the Potency was inconclusive: 23.8 µM [inhibitor, single point].
Fc1ccc2[nH]c3c(c2c1)CN(C(=S)NCc1ccccc1)CC3 was tested, and the Potency was inconclusive: 20 µM [inhibitor, partial curve].
